PubChem BioAssay AID1259308, NCATS, 2017

Screen: 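Knock-downs that increase output of a recombinant reporter protein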 (primary screen)
Cells: human HEK293 embryonic kidney cells stably expressing firefly luciferase (HEK-CMV-Luc2-Hygro)
Knock-down reagent: single siRNA against human genes, 0.8 pmol siRNA per well
Time to read-out: 72 h
Measured: 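Luciferase light (ONE-Glo) measured on one replicate plate set and viability (CellTiter-Glo) on the other, scaled to a negative control siRNA, with robust z-scores and luciferase per cell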
Direction: total luciferase, z-score and total luciferase, % of control: higher = more reporter protein produced; luciferase per cell, z-score: higher = more reporter output per viable cell; viable cells, % of control: higher = more viable cells
Rule for the call: 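Active when the median/MAD z-score for overall luciferase is greater than 3; a gene was taken forward for validation with new siRNAs if at least two of its three siRNAs passed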
Meaning of the calls: active = raised luciferase; inactive = no rise
The whole screen tested about 59,000 reagents; shown is an unselected part. In the full data, about 1,510 (2.6%) were called active. 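Calls use total luciferase alone and ignore viability, so some active siRNAs may act by altering cell number.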 A number with no mark means an inactive call. Reagents against one gene are numbered here.

gene knocked down,reagent no.,"total luciferase, z-score","total luciferase, % of control","luciferase per cell, z-score","viable cells, % of control"
KIF26A (kinesin family member 26A),1,0.175,85.4,0.0782,93.4
KIF26A (kinesin family member 26A),2,-1.18,58.3,-0.642,77.2
KIF26A (kinesin family member 26A),3,0.252,86.9,0.497,85.2
"MAGEA5P (MAGE family member A5, pseudogene)",1,0.196,85.8,-0.127,99.1
"MAGEA5P (MAGE family member A5, pseudogene)",2,0.514,92.1,2.19,57.8
"MAGEA5P (MAGE family member A5, pseudogene)",3,-0.0273,81.3,-0.72,110
RGP1 (RGP1 partner of RAB6A GEF complex),1,0.621,94.2,-0.0114,106
RGP1 (RGP1 partner of RAB6A GEF complex),2,-0.73,67.4,0.889,59.6
RGP1 (RGP1 partner of RAB6A GEF complex),3,1.23,106,2.12,67.9
TBC1D31 (TBC1 domain family member 31),1,0.898,99.7,0.542,96.6
TBC1D31 (TBC1 domain family member 31),2,-0.488,72.2,-0.9,102
TBC1D31 (TBC1 domain family member 31),3,0.345,88.8,0.026,98.5
MYO5B (myosin VB),1,-0.491,72.1,-0.618,94.8
MYO5B (myosin VB),2,-0.338,75.2,-0.684,101
MYO5B (myosin VB),3,-0.00812,81.7,0.402,82.1
GALNT2 (polypeptide N-acetylgalactosaminyltransferase 2),1,-1.45,53,-1.61,90.5
GALNT2 (polypeptide N-acetylgalactosaminyltransferase 2),2,-0.748,67,-0.781,92
GALNT2 (polypeptide N-acetylgalactosaminyltransferase 2),3,-1.5,52.1,-1.78,93
SHC1 (SHC adaptor protein 1),1,-1.27,56.7,-2.05,109
SHC1 (SHC adaptor protein 1),2,-0.339,75.1,1.28,59.9
SHC1 (SHC adaptor protein 1),3,0.733,96.5,0.151,104
DLST (dihydrolipoamide S-succinyltransferase),1,-1.24,57.2,-0.386,70.7
DLST (dihydrolipoamide S-succinyltransferase),2,0.173,85.3,1.31,67.5
DLST (dihydrolipoamide S-succinyltransferase),3,-1.29,56.2,-1.4,90.8
TBC1D10B (TBC1 domain family member 10B),1,0.00683,82,-0.055,93
TBC1D10B (TBC1 domain family member 10B),2,0.247,86.8,0.343,88.6
TBC1D10B (TBC1 domain family member 10B),3,-1.35,55.1,-1.4,89
SLC26A8,1,0.0131,82.1,-0.341,100
SLC26A8,2,1.11,104,0.379,105
SLC26A8,3,-0.484,72.3,-0.346,88.5
PLEKHA2 (pleckstrin homology domain containing A2),1,-0.235,77.2,-0.779,106
PLEKHA2 (pleckstrin homology domain containing A2),2,1.45,111,1.19,90.6
PLEKHA2 (pleckstrin homology domain containing A2),3,0.273,87.3,0.786,79.3
NTN3 (netrin 3),1,-1.72,47.8,-1.71,83.7
NTN3 (netrin 3),2,3.33 (active),148,1.62,108
NTN3 (netrin 3),3,-2.11,39.9,-1.4,64.4
LYPD6 (LY6/PLAUR domain containing 6),1,-0.147,79,-0.129,91.3
LYPD6 (LY6/PLAUR domain containing 6),2,-0.54,71.1,-0.0615,80.8
LYPD6 (LY6/PLAUR domain containing 6),3,0.0507,82.9,0.765,75.7
UBE2G2 (ubiquitin conjugating enzyme E2 G2),1,0.52,92.2,0.489,90.6
UBE2G2 (ubiquitin conjugating enzyme E2 G2),2,1.16,105,0.352,107
UBE2G2 (ubiquitin conjugating enzyme E2 G2),3,-1.09,60.3,-1.89,111
"LSM1 (LSM1 homolog, mRNA degradation associated)",1,0.437,90.6,0.335,92.7
"LSM1 (LSM1 homolog, mRNA degradation associated)",2,0.229,86.4,-0.397,107
"LSM1 (LSM1 homolog, mRNA degradation associated)",3,0.29,87.7,-0.3,106
SERTAD2 (SERTA domain containing 2),1,-0.13,79.3,0.0719,87
SERTAD2 (SERTA domain containing 2),2,-0.652,68.9,-0.485,87.5
SERTAD2 (SERTA domain containing 2),3,0.353,88.9,0.477,87.6
ZNF396 (zinc finger protein 396),1,0.359,89,0.0223,98.9
ZNF396 (zinc finger protein 396),2,2.45,131,1.95,87.3
ZNF396 (zinc finger protein 396),3,-1.65,49.1,-1.22,75.7
KCTD14 (potassium channel tetramerization domain containing 14),1,-0.342,75.1,-0.277,90.2
KCTD14 (potassium channel tetramerization domain containing 14),2,0.069,83.3,1.42,64
KCTD14 (potassium channel tetramerization domain containing 14),3,-0.948,63,-1.04,92.5
FDX2 (ferredoxin 2),1,-0.186,78.2,0.0989,85.1
FDX2 (ferredoxin 2),2,0.319,88.2,0.545,85.4
FDX2 (ferredoxin 2),3,-0.101,79.9,0.248,83.6

In a second layout: results already given.
gene knocked down	reagent no.	total luciferase, z-score	total luciferase, % of control	luciferase per cell, z-score	viable cells, % of control
TBC1D31 (TBC1 domain family member 31)	2	-0.488	72.2	-0.9	102
TBC1D31 (TBC1 domain family member 31)	3	0.345	88.8	0.026	98.5
MYO5B (myosin VB)	1	-0.491	72.1	-0.618	94.8
MYO5B (myosin VB)	2	-0.338	75.2	-0.684	101
MYO5B (myosin VB)	3	-0.00812	81.7	0.402	82.1
GALNT2 (polypeptide N-acetylgalactosaminyltransferase 2)	1	-1.45	53	-1.61	90.5
GALNT2 (polypeptide N-acetylgalactosaminyltransferase 2)	2	-0.748	67	-0.781	92
GALNT2 (polypeptide N-acetylgalactosaminyltransferase 2)	3	-1.5	52.1	-1.78	93
SHC1 (SHC adaptor protein 1)	1	-1.27	56.7	-2.05	109
